Source: the supplement of paper PMC5949888
Most values lie at the floor of the assay. Slopes are relative: functional sequences can read slightly below zero.

These substances were tested on Saccharomyces cerevisiae PS128 hsf1 delta, HSF1(1-493) fusion (assay: growth estimate (transactivation domain function in HSF1 fusion, heat-shock survival) (a.u. (slope of normalised read count over time)); higher = stronger growth at 37°C, i.e. more transactivation activity). Conditions: library: random library.

Substance	growth estimate
YGCATSVKKGCLLSGGQETQ	-0.245
YGCSRHVPALRSECSHWSAS	< -0.25
YGDRDVDSRN	< -0.25
YGDSERVDVVVEI	< -0.25
YGGPRVG	< -0.25
YGITDADARRSHASIRPHSR	< -0.25
YGLANV	< -0.25
YGLIQTRRLNLHVLCDP	< -0.25
YGQFSGHRAY	< -0.25
YGQGIRKSCGAFNKGRG	< -0.25
YGQPVPILFWGSGEQG	< -0.25
YGRHYGKALRGGRT	< -0.25
YGRLLGFGRREITAKCRDRR	< -0.25
YGRQPENRDCQRYTTLRRLY	< -0.25
YGRRPIGSVCPENDASPGAA	< -0.25
YGSARRIPTWDLFDLTHYLR	-0.215
YGSDRTICALWLIGFKRVRL	< -0.25
YGSSCPLWTLLYINELWVLQ	< -0.25
YGSYVRPIPSRGSSMKCMPT	< -0.25
YGTGDLMTCRRSL	< -0.25
YGVESV	< -0.25
YGVLRFVCTRNRPSSVWGAM	< -0.25
YGVQVADHQDILEFNLVPKT	< -0.25
YGVRRTDGERSGE	< -0.25
YGVTPLRCFDQARIELAART	< -0.25

Substance	growth estimate
YGWGLSLVFLESVMWIPRF	-0.229
YHEFVLLWDG	-0.188
YHGS	< -0.25
YHKSNPDRHPY	< -0.25
YHLRKWTPAVVSGARAVGRD	< -0.25
YHMWSGLTVMCGPNHFDPYR	< -0.25
YHNGRL	< -0.25
YHRFGKCTLGPSA	< -0.25
YHRQADVEMRDWCLMAALHL	< -0.25
YHRRPVSEPCQVGVT	< -0.25
YHSGAYPAKQASGTGRW	< -0.25
YHVPHTQACKGET	< -0.25
YIAEYICITGPRSEPRLRRS	< -0.25
YIIYTGTVGPGTYGVTRDAA	-0.243
YIK	< -0.25
YIQP	< -0.25
YIRLI	< -0.25
YIRVIGISPGPVQQGGPVRT	-0.25
YKAVHLEWEID	< -0.25
YKCLCERLLQG	< -0.25
YKDSHQASRSSVGVGWSGAF	< -0.25
YKITETG	< -0.25
YKLFIWDRTSVTD	< -0.25
YKLFTHVRRARS	< -0.25
YKLRPRVHKALDPAVC	< -0.25

6 entries from above in a different format.
Substance,growth estimate
YHEFVLLWDG,-0.188
YHRQADVEMRDWCLMAALHL,< -0.25
YHSGAYPAKQASGTGRW,< -0.25
YHVPHTQACKGET,< -0.25
YIRVIGISPGPVQQGGPVRT,-0.25
YKLFIWDRTSVTD,< -0.25

The list goes on.

Substance	growth estimate
YKRFRP	< -0.25
YKRGPLETALVFYV	< -0.25
YKSVCIGGLGLTGEYYTILS	< -0.25
YKTGRALPIKSKNLFTNESR	< -0.25
YKVVKLFIPEPRQSVFFQNA	< -0.25
YKYNPFGTLCRLTPSDDWG	< -0.25
YLAGVFAN	< -0.25
YLAKPRK	< -0.25
YLCNFATGTGAESRIVKGLV	< -0.25
YLDNAWVRLQAKLIGHEIRT	< -0.25
YLDRQCKQTHPRGAVT	< -0.25
YLDWAGRIIGRLPVAIRWFP	< -0.25
YLFTDSLWF	-0.187
YLHYRWPCKVDTMVVNAG	< -0.25
YLIIHIPAHRLTAAVTRGLR	< -0.25
YLISSQSHCLRLFQQRTT	< -0.25
YLLSFLFVSKHH	< -0.25
YLLV	< -0.25
YLLVKYLGHP	< -0.25
YLLWPIHYYALITQSRRLTH	< -0.25
YLNDIGNVDVRVWITYITGV	< -0.25
YLNSLFTLTV	< -0.25
YLPHEEGVLDD	< -0.25
YLPPDPAQDVTGKSMSHRRG	< -0.25
YLQSGSSNVIRPRKSLMLRS	-0.248

Substance	growth estimate
YLRIPSITLSQPQLASSLSV	< -0.25
YLS	< -0.25
YLSARKQR	< -0.25
YLSHKSKLVSEFLVDNNLYI	< -0.25
YLSN	< -0.25
YLSVHVVPF	< -0.25
YLT	< -0.25
YLTLAFEVPFMETWGTILPS	< -0.25
YLVDDLLRQPATGDGGRI	-0.248
YLVFLSHDTNYRETGGEHLI	< -0.25
YLWSIPGRGIGHSFGIYKFI	< -0.25
YLYLI	< -0.25
YMESILSGIFIGVGNIQLRF	< -0.25
YMHNYANMI	< -0.25
YMLSTSRIYVKRHPSVRN	< -0.25
YMLVGRNEQRYWGRTRCIEI	< -0.25
YMTCNTAVFRRVAAAVNVTI	< -0.25
YNATHGFTVVLYPKWLLPQP	< -0.25
YNCL	< -0.25
YNDRRASRVRQ	< -0.25
YNHSDSCRHDPHRLGGIDFS	-0.231
YNIAATSPI	< -0.25
YNIRGAQQAVHRETVLMNCS	< -0.25
YNIRGCWSRRAQSWAPSPSK	< -0.25
